# For some of these results: The name of at least one read-out is uncertain. Some of these results come from one statement about several compounds together. At least one structure is not confirmed: it was looked up by name or label, or the drawing left a doubt.
# What was measured:
# [1] = test system: Dirofilaria immitis microfilariae
# Cooperia curticei = Cooperia curticei (COOPCU) larval mortality assay; details: application rate 20 ppm; after 5 days
# Procedure: (§1) Solvent: dimethyl sulfoxide
# (§2) To produce a suitable preparation of active compound, 10 mg of active compound are dissolved in 0.5 ml solvent, and the concentrate is diluted with “Ringer's solution” to the desired concentration.
# Approximately 40 nematode larvae (Cooperia curticei) are transferred into a test tube containing the compound solution.
# After 5 days percentage of larval mortality is recorded. 100% efficacy means all larvae are killed; 0% efficacy means no larvae are killed.
# Haemonchus contortus = Haemonchus contortus (HAEMCO) larval mortality assay; details: application rate 20 ppm; after 5 days
# Procedure: as §1, §2
# Approximately 40 larvae of the red stomach worm (Haemonchus contortus) are transferred into a test tube containing compound solution.
# After 5 days percentage of larval mortality are recorded. 100% efficacy means all larvae are killed, 0% efficacy means no larvae are killed.
SMILES,EC50 (reduction of motility) [1] [ppm],activity (percentage of larval mortality) (Cooperia curticei) [%],activity (percentage of larval mortality) (Haemonchus contortus) [%]
"CC(F)(CNC(=O)c1ccccc1C(F)(F)F)c1ccc(-c2cncc(F)c2)cc1Cl (stereo not shown) [Example 1-101, N-{2-[2-chloro-4-(5-fluoropyridin-3-yl)phenyl]-2-fluoropropyl}-2-(trifluoromethyl) benzamide]",< 5,100,100
"O=C(NCC(F)(F)c1ccc(-c2ccc(F)nc2)cc1Cl)c1ccccc1C(F)(F)F [Example 1-93, N-[2-[2-chloro-4-(6-fluoro-3-pyridyl)phenyl]-2,2-difluoro-ethyl]-2-(trifluoromethyl)benzamide]",< 2.5,–,–
